{"source": "paper PMC10199020", "about": "(Nature Communications, 2023)", "key": {"[1]": {"biological_target": "T1, NL-IL23R and IL12Rβ1 (IL-23 receptor) on HEK293T cells (Homo sapiens, UniProt P42701+Q5VWK5)", "T1 construct": "expressed in transfected cells; host or cells: HEK293T (ATCC CRL-3216), transient transfection", "experiment": "IL23-TMR NanoBRET competition assay", "assay_type": "binding", "details": "for BRET ratio (Mean): Fig. 4b; for IC50: P630 IC50 (Mean), Fig. 4d", "experimental": "Schematic created with Biorender.com. IL23R is shown in orange, IL12Rβ1 in purple, IL23p19 in blue, IL12p40 in green and the presence of a TAMRA fluorophore by a pink star. […] In b and c, data are mean ± SEM from 5 independent experiments conducted in either duplicate or triplicate. Details on absolute number of data points included for each concentration are provided in the associated Source Data file.\n(§1) Transient transfections for experiments outlined in Fig. 6 were conducted by seeding 100 μL of 2 × 10^5 cells/ml concentrated HEK293T cells into poly-D-lysine (PDL) coated white 96 well clear bottom assay microplates (Greiner) and incubating overnight. The following day transfection mixes were made up that contained a 4:1 ratio of IL23R to IL12Rβ1 constructs to a total concentration of 100 ng per well with a 0.3 μL per well of FuGENE HD transfection reagent (Promega) in OptiMEM (Gibco). These mixtures were incubated for 10 min before being added to the plate at 5 μL per well. The cells were then incubated overnight to allow expression. For all other experiments 2 mL containing 4 × 10^5 cells were seeded into 6 well plates and incubated 5 h before being transiently transfected with 100 μL per well of a transfection mix containing 2 μg of DNA and 6 μL of FuGENE HD. These cells were then incubated overnight before being re-suspended the following day and seeded into PDL coated white assay microplates at 100 μL containing 3 × 10^4 transfected cells. Cells were then incubated overnight before the experiment. Estimates of total expression levels for the different NL-constructs were made by comparing the luminescence levels achieved to that of a NanoLuciferase standard curve measured under the same conditions (Supplementary Fig. 1).\nMedia was removed from white 96-well microplates containing transfected cells and replaced with fluoroprobe in the presence or absence of antagonist in 50 μL Hanks Balanced Salt Solution (HBSS) with 1 mg/mL BSA (Merck).\nAntagonist competition data were fit with the equation:4 Y=Bmin+Bmax−Bmin/1+10^(LogXC50−[A])C Where ‘Bmax’ is the maximum BRET signal, ‘Bmin’ is the minimum BRET signal, ‘LogXC50’ is the log of the 50% inhibiting concentration of antagonist, ‘[A]’ is the concentration of antagonist and ‘C’ is the Hill slope."}, "[2]": {"biological_target": "T1, NL-IL23R and IL12Rβ1 (IL-23 receptor) on HEK293T cells", "experiment": "P630-TMR NanoBRET competition assay", "assay_type": "binding", "experimental": "as §1, with “1). […]” for “1).”"}, "[3]": {"biological_target": "HiBit-IL23R and LgBit-IL12Rβ1 (Homo sapiens, UniProt Q5VWK5)", "details": "Fig. 3c; 10 μM Peptide 630; Exp 1-5", "excerpt": "Finally, we utilised a NanoBiT BRET system in which a complemented luciferase with fragments bound to both receptor subunits (Fig. 3) can be used as a BRET donor to measure interactions with binary receptor complexes.\nData in b are mean ± SEM from three independent experiments. In each individual experiment, triplicate determinations were made for total binding and duplicate or triplicate determinations made for non-specific binding. Data in c are the mean values obtained in five independent experiments, each conducted with six replicates. […] Data in d are the mean ± SEM from five (NL-IL23R and NL-23R + IL12Rβ1) or three (HiBit-IL23R + LgBit-IL12Rβ1) independent experiments. Source data are provided as a Source Data file."}}, "data": [{"smiles": "COc1ccc(C[C@H](NC(=O)[C@H]2NC(=O)[C@H](CCC(N)=O)NC(=O)[C@H](Cc3c[nH]c4ccccc34)NC(=O)[C@H]([C@@H](C)O)NC(=O)[C@H](CC(N)=O)NC(=O)[C@@H](NC(C)=O)C(C)(C)SSC2(C)C)C(=O)N[C@@H](Cc2ccc3ccccc3c2)C(=O)NC(C)(C)C(=O)N[C@@H](CCC(=O)O)C(=O)N[C@@H](CC(N)=O)C(=O)N[C@@H](CC(N)=O)C(N)=O)cc1", "note": "[P630]", "values": [{"measurement": "Inhibition of IL23-TMR binding (Mean)", "setting": "[1]; 300 pM IL23-TMR, [P630] -8.43136 logM", "value": -2.658}, {"measurement": "BRET ratio (Mean)", "setting": "[1]; 600 pM IL23-TMR, [P630] -8.699 logM", "value": 0.2942}, {"measurement": "BRET ratio (Mean)", "setting": "[1]; 600 pM IL23-TMR, [P630] -10.699 logM", "value": 0.2935}, {"measurement": "BRET ratio (Mean)", "setting": "[1]; 2000 pM IL23-TMR, [P630] -11.699 logM", "value": 0.2936}, {"measurement": "Ki", "setting": "[1]; Ki, IL23-TMR competition, NL-IL23R and IL12Rβ1, mean ± SEM", "value": "21.8 ± 3.4", "unit": "nM"}, {"measurement": "Ki", "setting": "[1]; Mean P630 Ki, multiple concentrations of IL23-TMR, ± SEM, n = 25", "value": "38 ± 9", "unit": "nM"}, {"measurement": "IC50", "setting": "[1]; [IL23-TMR] 0.1 nM", "value": 294, "unit": "nM"}, {"measurement": "IC50", "setting": "[1]; [IL23-TMR] 0.6 nM", "value": 738, "unit": "nM"}, {"measurement": "IC50", "setting": "[1]; [IL23-TMR] 1 nM", "value": 843, "unit": "nM"}, {"measurement": "IC50", "setting": "[1]; [IL23-TMR] 2 nM", "value": 2540, "unit": "nM"}, {"measurement": "Ki", "setting": "[2]", "value": "6.32 ± 1.06", "unit": "nM"}, {"measurement": "Luminescence counts (Mean per experiment)", "setting": "[3]", "value": 21827}]}]}
